Measured values published in patent US20170319675A1.
These are yes or no findings as the source states them, for the method shown. A result given as binding can be weak or reduced; the word gives no strength. Where a sequence is shown, tags or fusion partners need not be part of it.

B1: TLX3-001 (peptide)
peptide: SLAPAGVIRV
B2: WNT5A-001 (peptide)
peptide: AMSSKFFLV
B3: RAD54B-001 (peptide)
peptide: SLYKGLLSV
B4: ADAM8-001 (peptide)
peptide: KLLTEVHAA
B5: STAT2-001 (peptide)
peptide: SLLPVDIRQYL
B6: DIO2-001 (peptide)
peptide: ALYDSVILL
B7: NET1-001 (peptide)
peptide: ILVSWLPRL
B8: COL12A1-002 (peptide)
peptide: FLVDGSWSV
B9: HNRNPH-001 (peptide)
peptide: SMSGYDQVL
B10: GALNT2-001 (peptide)
peptide: ALLRTVVSV
B11: PI4KA-001 (peptide)
peptide: AMATESILHFA
B12: SMYD3-001 (peptide)
peptide: SLIEDLILL
B13: AKR-001 (peptide)
peptide: YLIHFPVSV
B14: VPS13B-001 (peptide)
peptide: SLWGGDVVL
B15: ANKH-001 (peptide)
peptide: SISDVIAQV
B16: VCAN-001 (peptide)
peptide: TLYPHTSQV
B17: CEP250-002 (peptide)
peptide: ALWEKNTHL
B18: FAP-003 (peptide)
peptide: YVYQNNIYL
B19: CSE1-001 (peptide)
peptide: ALFPHLLQPV
B20: ABCA13-002 (peptide)
peptide: ALDENLHQL
B21: DROSHA-001 (peptide)
peptide: AVVEFLTSV
B22: ABCA13-001 (peptide)
peptide: ILFEINPKL
B23: HUWE1-001 (peptide)
peptide: RLLGPSAAADILQL
B24: AURKB-001 (peptide)
peptide: RVLPPSALQSV
B25: PCNXL3-001 (peptide)
peptide: GVLENIFGV
B26: SEC61G-001 (peptide)
peptide: AIMGFIGFFV
B27: LAMC2-001 (peptide)
peptide: RLLDSVSRL
B28: DST-001 (peptide)
peptide: NLIEKSIYL
B29: OLFM1-001 (peptide)
peptide: ILMGTELTQV
B30: NCBP1-001 (peptide)
peptide: AMFENFVSV
B31: SLI-001 (peptide)
peptide: SLYDNQITTV
B32: IL8-001 (peptide)
peptide: KLAVALLAA
B33: NCAPD2-001 (peptide)
peptide: SLAGDVALQQL
B34: SLC3A2-001 (peptide)
peptide: SLLESNKDLLL
B35: SNRNP20-001 (peptide)
peptide: GLIEIISNA
B36: MDN1-001 (peptide)
peptide: ALANQKLYSV
B37: BNC1-001 (peptide)
peptide: VLFPNLKTV
B38: C12orf44-001 (peptide)
peptide: AMLAVLHTV
B39: ANKS1A-001 (peptide)
peptide: ALYGRLEVV
B40: NEFH-001 (peptide)
peptide: HLLEDIAHV
B41: P2RY6-001 (peptide)
peptide: TVIGFLLPFA
B42: TANC2-001 (peptide)
peptide: ALMDKEGLTAL
B43: SAMSN1-001 (peptide)
peptide: RLLAAENFL
B44: GFPT2-001 (peptide)
peptide: AIDGNNHEV
B45: MXRA5-002 (peptide)
peptide: GLTDNIHLV
B46: ITGA11-001 (peptide)
peptide: FLHHLEIEL
B47: MXRA5-001 (peptide)
peptide: TLSSIKVEV
B48: CDK4-001 (peptide)
peptide: TLWYRAPEV
B49: DST-002 (peptide)
peptide: KLDETNNTL

Target: HLA-A*0201 (human)
Experiment: UV-ligand exchange; anti-b2m ELISA

Row | binding | Binder
1 | binds | B1
2 | binds | B2
3 | binds | B3
4 | binds | B4
5 | binds | B5
6 | binds | B6
7 | binds | B7
8 | binds | B8
9 | binds | B9
10 | binds | B10
11 | binds | B11
12 | binds | B12
13 | binds | B13
14 | binds | B14
15 | binds | B15
16 | binds | B16
17 | binds | B17
18 | binds | B18
19 | binds | B19
20 | binds | B20
21 | binds | B21
22 | binds | B22
23 | binds | B23
24 | binds | B24
25 | binds | B25

Row | binding | Binder
26 | binds | B26
27 | binds | B27
28 | binds | B28
29 | binds | B29
30 | binds | B30
31 | binds | B31
32 | binds | B32
33 | binds | B33
34 | binds | B34
35 | binds | B35
36 | binds | B36
37 | binds | B37
38 | binds | B38
39 | binds | B39
40 | binds | B40
41 | binds | B41
42 | binds | B42
43 | binds | B43
44 | binds | B44
45 | binds | B45
46 | binds | B46
47 | binds | B47
48 | binds | B48
49 | binds | B49
